Results: PubChem BioAssay AID493014 (National Center for Advancing Translational Sciences (NCATS), 2011)
The list shows a part of the results. Shown are side measurements of this screen, not its main read-out; they come without a call. Most of these compounds were active or inconclusive in the main read-out, so they are no random draw. Words in brackets tell the shape of the fitted curve; partial curves, single points and poor fits give uncertain potencies.

Assay: qHTS Assay to Find Inhibitors of Chronic Active B-Cell Receptor Signaling
Settings: ABC-DLBCL IkBa-CBG/CBR reporter, luminescence ratio (green luciferase fused to IkBa over red control in TMD8 lymphoma cells), 4 h
Outline: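 TMD8 ABC-DLBCL cells carrying doxycycline-inducible green luciferase fused to IkappaBalpha plus unfused red luciferase were exposed to compounds (up to 46 uM) for 4 hrs at 37C. Activity came from the overlap-corrected green/red luminescence ratio.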

[1] = measured here: CBR red luminescence, cell number
[2] = measured here: IkBa-CBG green luminescence

Q: With `O=C(COC(=O)c1cc(=O)c2ccccc2o1)NCc1ccccc1` as the compound, how does the AC50 [1] read?
A: 25.9 µM [rising, partial curve, poor fit]

Q: Which AC50 [1] does the source give for `Cc1ccc2oc(=O)c3cc(C(=O)N4CCN(C(=O)c5ccco5)CC4)sc3c2c1` here?
A: 0.224 µM [rising, full curve, poor fit]

Q: With `O=C(OCc1ccc2c(c1)OCO2)c1cccc(S(=O)(=O)N2CCCCC2)c1` as the compound, how does the AC50 [1] read?
A: 3.26 µM [rising, partial curve, poor fit]

Q: For `Oc1ccc(Br)cc1/C=N/Nc1ncc(-c2ccccc2)cn1`, which AC50 [1] is on record?
A: 14.1 µM [falling, partial curve, poor fit]

Q: With `COc1ccc(CC(=O)NCc2ccc3c(c2)cc(C)n3C)cc1` as the compound, how does the AC50 [1] read?
A: 3.16 µM [rising, partial curve, poor fit]

Q: For `OC(CNc1ncnc2sccc12)c1ccccc1` (configuration not stated), which AC50 [1] is on record?
A: 11.2 µM [falling, partial curve]

Q: With `COc1ccc(OC)c(/C=C/C(=O)N2CCCc3ccccc32)c1` as the compound, how does the AC50 [1] read?
A: 11.2 µM [falling, partial curve, poor fit]

Q: With `COc1ccc(/C=N/NC(=O)c2cccc(Br)c2)cc1COc1ccccn1` as the compound, how does the AC50 [1] read?
A: 11.2 µM [falling, partial curve, poor fit]

Q: For `O=C(NCCc1ccc(Cl)cc1)c1ccc(CS(=O)(=O)Cc2ccc(F)cc2)o1`, which AC50 [1] is on record?
A: 12.6 µM [rising, single point]

Q: Which AC50 [1] does the source give for `O=C1CCCC2=C1C(c1ccccc1)NC(=S)N2` (configuration not stated) here?
A: 4.47 µM [falling, full curve]

Q: With `O=C(NN1C(=O)NC2(CCCCC2)C1=O)c1cc(F)cc(F)c1` as the compound, how does the AC50 [1] read?
A: 2.06 µM [rising, partial curve, poor fit]

Q: Which AC50 [1] does the source give for `Cc1ccc(-n2c(-c3cn(C)nc3C)n[nH]c2=S)cc1` here?
A: 20 µM [rising, single point]

Q: With `COCCN(CCOC)c1ncnc2c1cnn2-c1ccc(Cl)cc1` as the compound, how does the AC50 [1] read?
A: 16.4 µM [rising, partial curve, poor fit]

Q: For `COc1ccc(S(=O)(=O)NCc2ccccn2)cc1Cl`, which AC50 [1] is on record?
A: 0.259 µM [falling, full curve, poor fit]

Q: Which AC50 [1] does the source give for `O=c1c2ccccc2nc(COc2ccccc2)n1/N=C/c1ccc(O)cc1O` here?
A: 12.6 µM [falling, single point]

Q: For `CN(C)c1ccc(C(=O)OCC(=O)NC2CCCCC2)cc1`, which AC50 [1] is on record?
A: 32.6 µM [rising, single point]

Q: For `N#Cc1cccc(C(=O)OCC(=O)N2CCCc3ccccc32)c1`, which AC50 [1] is on record?
A: 29.1 µM [falling, single point]

Q: With `CSc1ccccc1OCc1cc(C(=O)N(C)C(C)c2nc(C)cs2)no1` (configuration not stated) as the compound, how does the AC50 [1] read?
A: 20 µM [falling, partial curve, poor fit]

Q: With `O=C(CC1SC(=NCCc2ccccc2)N(/N=C/c2cccs2)C1=O)Nc1ccc(Cl)cc1` (configuration not stated) as the compound, how does the AC50 [1] read?
A: 0.517 µM [rising, full curve, poor fit]

Q: For `Cc1ccc(C(=O)OCC(=O)N(C)c2c(N)n(Cc3ccccc3)c(=O)[nH]c2=O)s1`, which AC50 [1] is on record?
A: 4.61 µM [rising, partial curve, poor fit]

Q: Which AC50 [2] does the source give for `CC(=O)CCc1c(C)nc2ccc(C(=O)O)cc2c1Cl` here?
A: 14.6 µM [rising, partial curve, poor fit]

Q: Which AC50 [1] does the source give for `CCc1ccc(NC(=O)c2cnccn2)cc1` here?
A: 35.5 µM [falling, single point]

Q: With `C=CCSc1nc2ccsc2c(=O)n1-c1ccccc1` as the compound, how does the AC50 [1] read?
A: 35.5 µM [rising, single point]

Q: For `Cc1[nH]n(C(N)=S)c(=O)c1N=Nc1ccc2ccccc2c1`, which AC50 [1] is on record?
A: 31.6 µM [falling, single point]

Q: And the AC50 [2]?
A: 0.631 µM [falling, partial curve, poor fit]

Q: For `Cc1nc2ccccc2c2oc(C(=O)N3CCc4ccccc4C3)cc12`, which AC50 [1] is on record?
A: 0.58 µM [falling, partial curve, poor fit]

Q: With `O=C(O)c1ccc(CSC2CCCCC2)cc1` as the compound, how does the AC50 [1] read?
A: 35.5 µM [rising, single point]

Q: For `Cc1nc(SCC(=O)Nc2cccc(C(=O)O)c2)n[nH]1`, which AC50 [1] is on record?
A: 14.1 µM [falling, partial curve, poor fit]

Q: For `Cc1ccc(C(=O)COC(=O)c2cccc([N+](=O)[O-])c2)s1`, which AC50 [1] is on record?
A: 6.51 µM [rising, full curve, poor fit]

Q: For `CCCn1c(=O)c(C(=O)N/N=C/c2ccccc2F)c(O)c2ccccc21`, which AC50 [1] is on record?
A: 5.62 µM [falling, full curve, poor fit]

Q: Which AC50 [1] does the source give for `COc1ccc(NC(=O)CSc2nccn2C2CCCC2)cc1OC` here?
A: 0.562 µM [falling, full curve, poor fit]

Q: For `Cc1ccc(C2OC(=O)c3ccccc32)cc1` (configuration not stated), which AC50 [1] is on record?
A: 16.4 µM [rising, single point]

Q: For `CN(C)c1ccc2c3c(cccc13)C(=O)N(c1ccccc1)C2=O`, which AC50 [1] is on record?
A: 35.5 µM [rising, single point]

Q: Which AC50 [1] does the source give for `COC(=O)C1CCN(C(=O)COC(=O)C2CCN(S(=O)(=O)c3ccc(C)c(C)c3)CC2)CC1` here?
A: 0.103 µM [falling, full curve, poor fit]

Q: With `COc1ccc(C(=O)NC2=NCCS2)cc1S(=O)(=O)N1CCCCC1C` (configuration not stated) as the compound, how does the AC50 [1] read?
A: 35.5 µM [falling, partial curve, poor fit]

Q: For `O=C(NCc1ccco1)c1cc2ccc(O)cc2oc1=O`, which AC50 [1] is on record?
A: 11.2 µM [falling, partial curve]

Q: Which AC50 [1] does the source give for `O=C(NCCc1ccc(Cl)cc1)C1CCCN1C(=O)Nc1ccc(F)cc1` (configuration not stated) here?
A: 6.31 µM [falling, partial curve, poor fit]

Q: Which AC50 [1] does the source give for `O=C(Nc1ccccc1)NN(C(=O)CCl)c1ccccc1` here?
A: 0.562 µM [falling, full curve]

Q: Which AC50 [1] does the source give for `COC(=O)[C@H](C)N(Cc1ccc(Cl)c(Cl)c1)S(=O)(=O)CCNC1CCCC1` here?
A: 29.1 µM [falling, single point]

Q: With `OCCN1CCN(CCCN2c3ccccc3Sc3ccc(Cl)cc32)CC1` as the compound, how does the AC50 [1] read?
A: 4.47 µM [falling, partial curve]

Q: Which AC50 [1] does the source give for `CCOC(=O)/C=C/C(=O)Nc1nccs1` here?
A: 20.6 µM [falling, single point]

Q: What about the AC50 [2] of the same compound?
A: 5.8 µM [rising, full curve, poor fit]

Q: Which AC50 [1] does the source give for `N#Cc1ccccc1NC(=O)CC1c2ccccc2Oc2ccccc21` here?
A: 29.1 µM [rising, single point]

Q: Which AC50 [1] does the source give for `C/C(=N\Nc1cccc2cccnc12)c1ccc(N)cc1` here?
A: 7.94 µM [falling, partial curve]

Q: With `O=C(CSCc1ccc(Cl)cc1)Nc1ccc(O)cc1C(=O)O` as the compound, how does the AC50 [1] read?
A: 12.6 µM [falling, partial curve]

Q: For `O=C1NC2c3ccccc3C(=O)N2c2c1cnn2-c1ccccc1` (configuration not stated), which AC50 [1] is on record?
A: 18.4 µM [rising, partial curve, poor fit]

Q: For `O=C(Nc1nsc(-c2ccccc2)n1)c1ccncc1`, which AC50 [1] is on record?
A: 14.1 µM [falling, single point]

Q: Which AC50 [1] does the source give for `O=C(N/N=C/c1ccc(N2CCOCC2)o1)c1cccc([N+](=O)[O-])c1` here?
A: 25.9 µM [rising, single point]

Q: With `O=C(CCS(=O)(=O)c1ccc(Br)cc1)N1CCN(c2ccccc2Cl)CC1` as the compound, how does the AC50 [1] read?
A: 16.4 µM [rising, single point]

Q: Which AC50 [1] does the source give for `CC(=O)N1CCc2c(sc(NC(=O)c3ccc([N+](=O)[O-])o3)c2C#N)C1` here?
A: 3.55 µM [falling, full curve]

Q: Which AC50 [1] does the source give for `COc1ccc(-c2nc3oc4cc(OC)ccc4c(=O)c3c(=O)n2Cc2ccco2)cc1` here?
A: 16.4 µM [falling, single point]

Q: Which AC50 [1] does the source give for `Oc1cccc(Nc2nc(O)c(/C=C3\C=Nc4ccccc43)s2)c1` here?
A: 20 µM [falling, partial curve, poor fit]

Q: Which AC50 [1] does the source give for `Brc1ccc(Nc2nc3ccccc3n3nnnc23)cc1` here?
A: 25.9 µM [falling, partial curve, poor fit]

Q: For `Cn1nc(C(F)(F)F)c2cc(NC(=O)OCC(C)(C)C)sc21`, which AC50 [1] is on record?
A: 35.5 µM [rising, partial curve, poor fit]

Q: For `CC(CCc1ccccc1)NC(=O)CSc1nc(N)cc(N)n1` (configuration not stated), which AC50 [1] is on record?
A: 29.1 µM [rising, single point]

Q: Which AC50 [1] does the source give for `Cc1ccsc1C(=O)N/N=C/c1ccc2c(c1)OCO2` here?
A: 0.184 µM [falling, full curve]

Q: For `CCCCNS(=O)(=O)c1ccc2nc(SCC(=O)N3CC(C)OC(C)C3)[nH]c2c1` (configuration not stated), which AC50 [1] is on record?
A: 5.17 µM [rising, single point]

Q: For `CCC(=O)Nc1cccc(C2=NOC3(C2)C[C@H](C(N)=O)N(C(=O)Cc2ccc([N+](=O)[O-])cc2)C3)c1` (some centres not stated), which AC50 [1] is on record?
A: 11.2 µM [rising, single point]

Q: For `COc1ccc(C2CC(c3ccc(OC)c(OC)c3)=NN2C(=O)c2ccccc2)cc1` (configuration not stated), which AC50 [1] is on record?
A: 0.316 µM [rising, full curve, poor fit]

Q: And the AC50 [2]?
A: 10 µM [falling, partial curve]

Q: For `Cc1cc(C)c(C)c(S(=O)(=O)N[C@@H](C)C(=O)OC(C)C(=O)NC(N)=O)c1C` (some centres not stated), which AC50 [1] is on record?
A: 6.31 µM [rising, partial curve, poor fit]

Q: Which AC50 [1] does the source give for `C=C1CCN(CC(=O)OC)S(=O)(=O)c2ccccc21` here?
A: 35.5 µM [rising, single point]

Q: With `CCOc1cccc(C(=O)N/N=C/c2ccoc2)c1` as the compound, how does the AC50 [1] read?
A: 5.62 µM [falling, partial curve, poor fit]

Q: With `COc1cccc(C(=O)Nc2ccc3c(c2)C(=O)NC3=O)c1` as the compound, how does the AC50 [1] read?
A: 35.5 µM [falling, partial curve, poor fit]

Q: For `Nc1ccc(N=Nc2ccccc2)c2ccccc12`, which AC50 [1] is on record?
A: 12.6 µM [rising, partial curve]

Q: With `O=Nc1ccc(O)c2ncccc12` as the compound, how does the AC50 [1] read?
A: 10 µM [falling, single point]

Q: For `C(#Cc1ccc2c(c1)COc1c3ccccc3nn1-2)c1ccccc1`, which AC50 [1] is on record?
A: 1.46 µM [rising, full curve, poor fit]
